# This is one part of the list.
# B1: CTLX (Homo sapiens), Q6UXS0 (protein)
# chain: SLCPLFWMEFKGHCYRFFPLNKTWAEADLYCSEFSVGRKSAKLASIHSWEENVFVYDLVNSCVPGIPADVWTGLHDHRQEGQFEWTDGSSYDYSYWDGSQPDDGVHADPEEEDCVQIWYRPTSALRSWNDNTCSRKFPFVCKIPSLTIH
# Tests used:
# Experiment in all cases: glycan array binding signal (z-score within array); higher = stronger binding
# Conditions in all cases: glycan notation: IUPAC condensed, linker removed
# Gal(b1-3)Gal = molecular target: Gal(b1-3)Gal
# Procedure, shortened: (§1)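 The binding signal is a Z-score computed within each array. Data were drawn from 3228 arrays in the Consortium for Functional Glycomics database, restricted to those with a known protein sequence. Scores were averaged over arrays of the same protein sequence at different concentrations or buffers, and over linkers, and negative values can be taken as non-binding.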
# Gal(b1-3)Gal(b1-4)GlcNAc = molecular target: Gal(b1-3)Gal(b1-4)GlcNAc
# Procedure, shortened: as §1
# [1] = molecular target: Gal(b1-3)Gal(b1-4)GlcNAc(b1-2)Man(a1-3)[Gal(b1-3)Gal(b1-4)GlcNAc(b1-2)Man(a1-6)]Man(b1-4)GlcNAc(b1-4)GlcNAc
# Procedure, shortened: as §1
# Gal(b1-3)GalNAc = molecular target: Gal(b1-3)GalNAc
# Procedure, shortened: as §1
# [2] = molecular target: Gal(b1-3)GalNAc(a1-3)[Fuc(a1-2)]Gal(b1-4)Glc
# Procedure, shortened: as §1
# [3] = molecular target: Gal(b1-3)GalNAc(a1-3)[Fuc(a1-2)]Gal(b1-4)GlcNAc
# Procedure, shortened: as §1
# [4] = molecular target: Gal(b1-3)GalNAc(b1-3)Gal(a1-4)Gal(b1-4)Glc
# Procedure, shortened: as §1
# [5] = molecular target: Gal(b1-3)GalNAc(b1-4)Gal(b1-4)Glc
# Procedure, shortened: as §1
# [6] = molecular target: Gal(b1-3)GalNAc(b1-4)[Neu5Ac(a2-3)]Gal(b1-4)Glc
# Procedure, shortened: as §1
# Gal(b1-3)GlcNAc = molecular target: Gal(b1-3)GlcNAc
# Procedure, shortened: as §1
# [7] = molecular target: Gal(b1-3)GlcNAc(b1-2)Man(a1-3)[Gal(b1-3)GlcNAc(b1-2)Man(a1-6)]Man(b1-4)GlcNAc(b1-4)GlcNAc
# Procedure, shortened: as §1
# [8] = molecular target: Gal(b1-3)GlcNAc(b1-2)Man(a1-3)[Gal(b1-3)GlcNAc(b1-2)Man(a1-6)]Man(b1-4)GlcNAc(b1-4)[Fuc(a1-6)]GlcNAc
# Procedure, shortened: as §1
# [9] = molecular target: Gal(b1-3)GlcNAc(b1-3)Gal(b1-3)GlcNAc
# Procedure, shortened: as §1
# [10] = molecular target: Gal(b1-3)GlcNAc(b1-3)Gal(b1-4)Glc
# Procedure, shortened: as §1
# [11] = molecular target: Gal(b1-3)GlcNAc(b1-3)Gal(b1-4)GlcNAc
# Procedure, shortened: as §1
# [12] = molecular target: Gal(b1-3)[Fuc(a1-4)]GlcNAc
# Procedure, shortened: as §1
# [13] = molecular target: Gal(b1-3)[Fuc(a1-4)]GlcNAc(b1-2)Man(a1-3)[Gal(b1-3)[Fuc(a1-4)]GlcNAc(b1-2)Man(a1-6)]Man(b1-4)GlcNAc(b1-4)GlcNAc
# Procedure, shortened: as §1
# [14] = molecular target: Gal(b1-3)[Fuc(a1-4)]GlcNAc(b1-2)Man(a1-3)[Gal(b1-3)[Fuc(a1-4)]GlcNAc(b1-2)Man(a1-6)]Man(b1-4)GlcNAc(b1-4)[Fuc(a1-6)]GlcNAc
# Procedure, shortened: as §1
# [15] = molecular target: Gal(b1-3)[Fuc(a1-4)]GlcNAc(b1-3)Gal(b1-3)[Fuc(a1-4)]GlcNAc
# Procedure, shortened: as §1
# [16] = molecular target: Gal(b1-3)[Fuc(a1-4)]GlcNAc(b1-3)Gal(b1-4)GlcNAc
# Procedure, shortened: as §1
# [17] = molecular target: Gal(b1-3)[Fuc(a1-4)]GlcNAc(b1-3)Gal(b1-4)[Fuc(a1-3)]GlcNAc
# Procedure, shortened: as §1
# [18] = molecular target: Gal(b1-3)[GlcNAc(b1-6)]GalNAc
# Procedure, shortened: as §1
# [19] = molecular target: Gal(b1-3)[Neu5Ac(a2-6)]GalNAc
# Procedure, shortened: as §1
# [20] = molecular target: Gal(b1-3)[Neu5Ac(a2-6)]GlcNAc(b1-6)Gal(b1-4)Glc
# Procedure, shortened: as §1
# [21] = molecular target: Gal(b1-3)[Neu5Ac(b2-6)]GalNAc
# Procedure, shortened: as §1
# [22] = molecular target: Gal(b1-4)GalNAc(a1-3)[Fuc(a1-2)]Gal(b1-4)GlcNAc
# Procedure, shortened: as §1
# [23] = molecular target: Gal(b1-4)GalNAc(b1-3)[Fuc(a1-2)]Gal(b1-4)GlcNAc
# Procedure, shortened: as §1
# Gal(b1-4)Glc = molecular target: Gal(b1-4)Glc
# Procedure, shortened: as §1
# Gal(b1-4)Glc6S = molecular target: Gal(b1-4)Glc6S
# Procedure, shortened: as §1
# Gal(b1-4)GlcNAc = molecular target: Gal(b1-4)GlcNAc
# Procedure, shortened: as §1
# [24] = molecular target: Gal(b1-4)GlcNAc(a1-6)Gal(b1-4)GlcNAc
# Procedure, shortened: as §1
# [25] = molecular target: Gal(b1-4)GlcNAc(b1-2)Man(a1-3)Man(b1-4)GlcNAc(b1-4)GlcNAc
# Procedure, shortened: as §1
# [26] = molecular target: Gal(b1-4)GlcNAc(b1-2)Man(a1-3)[Gal(b1-4)GlcNAc(b1-2)Man(a1-6)]Man(b1-4)GlcNAc(b1-4)GlcNAc
# Procedure, shortened: as §1
# [27] = molecular target: Gal(b1-4)GlcNAc(b1-2)Man(a1-3)[Gal(b1-4)GlcNAc(b1-2)Man(a1-6)]Man(b1-4)GlcNAc(b1-4)[Fuc(a1-6)]GlcNAc
# Procedure, shortened: as §1
# [28] = molecular target: Gal(b1-4)GlcNAc(b1-2)Man(a1-3)[Man(a1-6)]Man(b1-4)GlcNAc(b1-4)GlcNAc
# Procedure, shortened: as §1
# [29] = molecular target: Gal(b1-4)GlcNAc(b1-2)Man(a1-6)Man(b1-4)GlcNAc(b1-4)GlcNAc
# Procedure, shortened: as §1
# [30] = molecular target: Gal(b1-4)GlcNAc(b1-2)Man(a1-6)[Man(a1-3)]Man(b1-4)GlcNAc(b1-4)GlcNAc
# Procedure, shortened: as §1
# [31] = molecular target: Gal(b1-4)GlcNAc(b1-2)[Gal(b1-4)GlcNAc(b1-4)]Man(a1-3)[Gal(b1-4)GlcNAc(b1-2)Man(a1-6)]Man(b1-4)GlcNAc(b1-4)GlcNAc
# Procedure, shortened: as §1
# [32] = molecular target: Gal(b1-4)GlcNAc(b1-3)Gal(b1-3)GlcNAc
# Procedure, shortened: as §1
# [33] = molecular target: Gal(b1-4)GlcNAc(b1-3)Gal(b1-4)Glc
# Procedure, shortened: as §1
# [34] = molecular target: Gal(b1-4)GlcNAc(b1-3)Gal(b1-4)GlcNAc
# Procedure, shortened: as §1
# [35] = molecular target: Gal(b1-4)GlcNAc(b1-3)Gal(b1-4)GlcNAc(b1-3)Gal(b1-4)GlcNAc
# Procedure, shortened: as §1
# [36] = molecular target: Gal(b1-4)GlcNAc(b1-3)Gal(b1-4)[Fuc(a1-3)]GlcNAc(b1-3)Gal(b1-4)[Fuc(a1-3)]GlcNAc
# Procedure, shortened: as §1
# [37] = molecular target: Gal(b1-4)GlcNAc(b1-3)GalNAc
# Procedure, shortened: as §1
# [38] = molecular target: Gal(b1-4)GlcNAc(b1-3)[Gal(b1-4)GlcNAc(b1-6)]Gal(b1-4)GlcNAc
# Procedure, shortened: as §1
binder,measurement,setting,value
B1,glycan array binding signal (z-score),Gal(b1-3)Gal,-0.24
same,glycan array binding signal (z-score),Gal(b1-3)Gal(b1-4)GlcNAc,-0.608
same,glycan array binding signal (z-score),[1],-0.743
same,glycan array binding signal (z-score),Gal(b1-3)GalNAc,0.235
same,glycan array binding signal (z-score),[2],-1.03
same,glycan array binding signal (z-score),[3],-0.574
same,glycan array binding signal (z-score),[4],0.324
same,glycan array binding signal (z-score),[5],0.403
same,glycan array binding signal (z-score),[6],-0.893
same,glycan array binding signal (z-score),Gal(b1-3)GlcNAc,0.253
same,glycan array binding signal (z-score),[7],0.14
same,glycan array binding signal (z-score),[8],-0.994
same,glycan array binding signal (z-score),[9],-0.068
same,glycan array binding signal (z-score),[10],-0.467
same,glycan array binding signal (z-score),[11],-0.392
same,glycan array binding signal (z-score),[12],0.52
same,glycan array binding signal (z-score),[13],4.2
same,glycan array binding signal (z-score),[14],1.69
same,glycan array binding signal (z-score),[15],-0.491
same,glycan array binding signal (z-score),[16],-0.8
same,glycan array binding signal (z-score),[17],-0.251
same,glycan array binding signal (z-score),[18],-0.38
same,glycan array binding signal (z-score),[19],-0.649
same,glycan array binding signal (z-score),[20],0.079
same,glycan array binding signal (z-score),[21],-1.13
same,glycan array binding signal (z-score),[22],0.64
same,glycan array binding signal (z-score),[23],-0.46
same,glycan array binding signal (z-score),Gal(b1-4)Glc,-0.231
same,glycan array binding signal (z-score),Gal(b1-4)Glc6S,-0.321
same,glycan array binding signal (z-score),Gal(b1-4)GlcNAc,-0.156
same,glycan array binding signal (z-score),[24],-0.439
same,glycan array binding signal (z-score),[25],-0.563
same,glycan array binding signal (z-score),[26],-0.612
same,glycan array binding signal (z-score),[27],-0.711
same,glycan array binding signal (z-score),[28],-0.746
same,glycan array binding signal (z-score),[29],-0.102
same,glycan array binding signal (z-score),[30],0.223
same,glycan array binding signal (z-score),[31],1.05
same,glycan array binding signal (z-score),[32],0.157
same,glycan array binding signal (z-score),[33],0.037
same,glycan array binding signal (z-score),[34],-0.436
same,glycan array binding signal (z-score),[35],-0.836
same,glycan array binding signal (z-score),[36],-0.097
same,glycan array binding signal (z-score),[37],0.46
same,glycan array binding signal (z-score),[38],-0.685

# From the supplement of paper PMC8728848
